# According to the supplement of paper PMC6411743:
# Protein sequences, listed by entry. Tags and fused reporters are not part of them. Lines headed by an entry give the natural chain unless they say otherwise; changes in a name come on top.
# UniProt O75264: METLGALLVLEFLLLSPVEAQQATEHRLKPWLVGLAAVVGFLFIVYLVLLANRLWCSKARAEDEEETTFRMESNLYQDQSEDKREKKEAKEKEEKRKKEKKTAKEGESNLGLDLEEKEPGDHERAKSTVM
# UniProt P34949: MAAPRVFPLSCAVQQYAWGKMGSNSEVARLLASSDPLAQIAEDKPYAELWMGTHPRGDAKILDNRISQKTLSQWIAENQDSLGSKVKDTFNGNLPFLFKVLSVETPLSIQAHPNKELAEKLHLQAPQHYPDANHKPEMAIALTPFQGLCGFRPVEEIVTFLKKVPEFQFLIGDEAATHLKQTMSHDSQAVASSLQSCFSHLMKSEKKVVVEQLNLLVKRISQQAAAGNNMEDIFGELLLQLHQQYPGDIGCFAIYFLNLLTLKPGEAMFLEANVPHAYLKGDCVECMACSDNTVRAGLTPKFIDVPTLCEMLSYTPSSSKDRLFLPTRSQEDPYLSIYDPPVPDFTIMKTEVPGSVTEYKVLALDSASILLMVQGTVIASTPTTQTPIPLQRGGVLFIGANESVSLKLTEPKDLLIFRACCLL
# UniProt Q13686: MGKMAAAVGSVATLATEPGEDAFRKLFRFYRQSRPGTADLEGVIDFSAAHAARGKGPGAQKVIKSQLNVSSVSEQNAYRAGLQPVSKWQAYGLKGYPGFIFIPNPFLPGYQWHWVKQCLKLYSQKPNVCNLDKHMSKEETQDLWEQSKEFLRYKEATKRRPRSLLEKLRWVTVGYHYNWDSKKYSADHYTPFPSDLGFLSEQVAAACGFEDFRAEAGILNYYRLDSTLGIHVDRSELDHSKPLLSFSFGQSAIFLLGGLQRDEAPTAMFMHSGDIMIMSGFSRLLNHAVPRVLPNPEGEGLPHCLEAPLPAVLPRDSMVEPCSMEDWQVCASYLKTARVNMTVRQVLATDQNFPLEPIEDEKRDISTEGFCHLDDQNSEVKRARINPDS
# UniProt Q14119: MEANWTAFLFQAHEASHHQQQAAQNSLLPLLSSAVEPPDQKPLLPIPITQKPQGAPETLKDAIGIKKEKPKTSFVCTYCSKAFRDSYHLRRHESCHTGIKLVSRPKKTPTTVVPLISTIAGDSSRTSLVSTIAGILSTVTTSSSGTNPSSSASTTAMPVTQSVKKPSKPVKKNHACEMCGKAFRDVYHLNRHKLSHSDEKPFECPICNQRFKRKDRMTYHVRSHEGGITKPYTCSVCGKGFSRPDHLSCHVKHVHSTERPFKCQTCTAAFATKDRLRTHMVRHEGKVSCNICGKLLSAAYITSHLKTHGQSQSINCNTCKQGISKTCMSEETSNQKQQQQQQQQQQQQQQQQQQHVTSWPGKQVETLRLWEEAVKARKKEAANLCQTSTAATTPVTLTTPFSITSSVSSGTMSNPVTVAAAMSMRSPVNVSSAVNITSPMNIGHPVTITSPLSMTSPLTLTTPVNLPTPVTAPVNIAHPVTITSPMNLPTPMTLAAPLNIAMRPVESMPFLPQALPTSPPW
# UniProt P49848, whole entry: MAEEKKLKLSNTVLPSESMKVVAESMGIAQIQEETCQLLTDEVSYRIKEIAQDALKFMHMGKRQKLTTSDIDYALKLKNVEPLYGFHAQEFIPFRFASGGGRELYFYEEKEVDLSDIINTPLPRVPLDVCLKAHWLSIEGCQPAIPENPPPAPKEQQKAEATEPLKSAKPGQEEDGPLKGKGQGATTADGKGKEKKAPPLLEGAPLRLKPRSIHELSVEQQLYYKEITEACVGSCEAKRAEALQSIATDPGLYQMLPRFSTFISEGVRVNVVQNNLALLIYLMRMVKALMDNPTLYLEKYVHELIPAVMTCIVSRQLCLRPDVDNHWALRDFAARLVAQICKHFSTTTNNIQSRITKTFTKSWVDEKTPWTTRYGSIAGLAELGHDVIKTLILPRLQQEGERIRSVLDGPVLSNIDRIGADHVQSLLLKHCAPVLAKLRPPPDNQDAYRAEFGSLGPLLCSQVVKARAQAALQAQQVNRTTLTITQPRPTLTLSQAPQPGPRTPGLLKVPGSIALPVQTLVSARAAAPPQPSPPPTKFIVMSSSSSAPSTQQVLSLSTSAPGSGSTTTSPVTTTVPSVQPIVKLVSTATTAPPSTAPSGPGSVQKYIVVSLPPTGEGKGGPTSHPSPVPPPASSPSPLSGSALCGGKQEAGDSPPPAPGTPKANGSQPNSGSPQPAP
# UniProt Q2TAZ0: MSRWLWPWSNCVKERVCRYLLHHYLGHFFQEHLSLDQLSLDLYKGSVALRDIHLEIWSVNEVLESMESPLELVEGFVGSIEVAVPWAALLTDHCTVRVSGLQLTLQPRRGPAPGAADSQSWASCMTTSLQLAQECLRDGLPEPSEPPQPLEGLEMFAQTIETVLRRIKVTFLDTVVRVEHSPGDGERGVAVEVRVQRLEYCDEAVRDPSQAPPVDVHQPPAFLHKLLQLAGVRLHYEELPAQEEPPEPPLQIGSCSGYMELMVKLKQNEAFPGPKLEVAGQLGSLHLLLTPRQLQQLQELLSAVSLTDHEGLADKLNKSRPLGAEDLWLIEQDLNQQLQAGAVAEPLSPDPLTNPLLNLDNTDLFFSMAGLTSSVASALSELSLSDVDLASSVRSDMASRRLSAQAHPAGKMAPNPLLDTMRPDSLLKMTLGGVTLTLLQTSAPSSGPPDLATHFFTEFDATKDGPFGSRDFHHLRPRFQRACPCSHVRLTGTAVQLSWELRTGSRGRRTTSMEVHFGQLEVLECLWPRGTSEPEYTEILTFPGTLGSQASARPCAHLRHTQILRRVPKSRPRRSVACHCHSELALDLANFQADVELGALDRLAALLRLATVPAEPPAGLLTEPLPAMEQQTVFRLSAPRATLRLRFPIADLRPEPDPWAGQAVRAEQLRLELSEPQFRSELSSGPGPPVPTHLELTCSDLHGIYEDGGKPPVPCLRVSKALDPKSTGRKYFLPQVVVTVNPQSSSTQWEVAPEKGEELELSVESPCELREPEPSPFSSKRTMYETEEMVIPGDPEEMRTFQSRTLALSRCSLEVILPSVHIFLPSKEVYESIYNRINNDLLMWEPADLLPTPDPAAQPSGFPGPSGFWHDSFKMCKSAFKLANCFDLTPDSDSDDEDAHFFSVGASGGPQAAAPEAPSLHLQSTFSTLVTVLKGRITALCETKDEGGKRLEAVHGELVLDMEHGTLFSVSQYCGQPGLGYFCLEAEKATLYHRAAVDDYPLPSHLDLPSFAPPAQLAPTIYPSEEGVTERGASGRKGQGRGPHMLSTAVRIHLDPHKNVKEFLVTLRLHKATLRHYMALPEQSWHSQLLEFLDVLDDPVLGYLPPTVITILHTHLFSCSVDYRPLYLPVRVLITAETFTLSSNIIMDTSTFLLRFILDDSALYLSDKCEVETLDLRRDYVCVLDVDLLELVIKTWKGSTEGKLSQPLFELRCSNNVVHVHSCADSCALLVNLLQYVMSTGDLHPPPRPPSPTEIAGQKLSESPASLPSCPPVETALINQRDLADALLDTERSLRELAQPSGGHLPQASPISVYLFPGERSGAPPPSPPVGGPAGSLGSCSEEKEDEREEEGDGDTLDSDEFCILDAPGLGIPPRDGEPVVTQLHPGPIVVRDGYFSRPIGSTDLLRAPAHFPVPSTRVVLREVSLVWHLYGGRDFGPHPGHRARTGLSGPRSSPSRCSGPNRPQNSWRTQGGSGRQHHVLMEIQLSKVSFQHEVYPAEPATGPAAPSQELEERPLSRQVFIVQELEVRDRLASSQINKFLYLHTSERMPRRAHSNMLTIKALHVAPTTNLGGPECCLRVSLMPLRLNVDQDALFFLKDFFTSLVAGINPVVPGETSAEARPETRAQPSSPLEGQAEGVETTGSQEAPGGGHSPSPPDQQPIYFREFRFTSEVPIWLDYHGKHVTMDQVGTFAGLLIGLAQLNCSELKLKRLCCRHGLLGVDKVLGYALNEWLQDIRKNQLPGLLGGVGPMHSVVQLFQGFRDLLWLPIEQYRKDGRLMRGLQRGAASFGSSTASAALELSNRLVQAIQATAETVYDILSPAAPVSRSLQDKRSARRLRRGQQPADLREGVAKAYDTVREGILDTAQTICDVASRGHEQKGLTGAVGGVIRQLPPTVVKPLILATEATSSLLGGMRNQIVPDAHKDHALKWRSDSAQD
# UniProt Q16543: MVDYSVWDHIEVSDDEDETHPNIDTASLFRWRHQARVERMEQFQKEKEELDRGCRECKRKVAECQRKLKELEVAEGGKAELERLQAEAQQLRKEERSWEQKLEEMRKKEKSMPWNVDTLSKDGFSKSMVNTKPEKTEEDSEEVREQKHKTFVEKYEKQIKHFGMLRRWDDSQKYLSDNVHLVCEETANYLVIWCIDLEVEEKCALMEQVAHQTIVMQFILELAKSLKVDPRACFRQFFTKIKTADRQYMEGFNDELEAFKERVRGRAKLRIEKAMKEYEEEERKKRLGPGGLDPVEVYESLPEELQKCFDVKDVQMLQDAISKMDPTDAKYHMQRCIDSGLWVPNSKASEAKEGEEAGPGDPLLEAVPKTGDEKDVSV
# UniProt Q2T9K0: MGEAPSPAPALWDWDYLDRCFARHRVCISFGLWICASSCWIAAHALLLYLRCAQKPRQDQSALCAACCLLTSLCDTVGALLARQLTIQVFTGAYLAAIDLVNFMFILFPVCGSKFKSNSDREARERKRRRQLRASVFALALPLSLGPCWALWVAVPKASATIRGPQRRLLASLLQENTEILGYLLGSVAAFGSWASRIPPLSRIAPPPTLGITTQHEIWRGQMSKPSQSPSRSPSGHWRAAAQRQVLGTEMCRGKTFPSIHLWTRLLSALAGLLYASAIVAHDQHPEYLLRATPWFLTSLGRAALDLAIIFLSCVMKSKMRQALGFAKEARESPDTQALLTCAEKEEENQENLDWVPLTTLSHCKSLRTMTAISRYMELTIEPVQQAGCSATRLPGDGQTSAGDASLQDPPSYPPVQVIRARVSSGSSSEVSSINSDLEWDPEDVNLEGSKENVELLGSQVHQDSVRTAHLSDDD
# UniProt P51648: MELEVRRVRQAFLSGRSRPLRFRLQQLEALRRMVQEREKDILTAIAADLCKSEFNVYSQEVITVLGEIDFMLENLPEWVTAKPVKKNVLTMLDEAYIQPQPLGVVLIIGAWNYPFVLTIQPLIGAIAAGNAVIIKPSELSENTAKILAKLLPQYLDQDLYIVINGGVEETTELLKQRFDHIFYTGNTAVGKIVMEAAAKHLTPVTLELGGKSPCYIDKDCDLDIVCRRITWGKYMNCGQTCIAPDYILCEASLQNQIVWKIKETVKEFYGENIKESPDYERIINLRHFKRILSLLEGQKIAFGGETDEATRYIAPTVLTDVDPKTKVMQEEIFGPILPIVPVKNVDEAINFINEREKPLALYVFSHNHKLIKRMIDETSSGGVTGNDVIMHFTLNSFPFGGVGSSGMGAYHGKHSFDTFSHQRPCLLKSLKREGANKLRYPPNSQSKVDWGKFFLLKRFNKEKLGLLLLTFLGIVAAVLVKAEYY
# UniProt Q8TF40: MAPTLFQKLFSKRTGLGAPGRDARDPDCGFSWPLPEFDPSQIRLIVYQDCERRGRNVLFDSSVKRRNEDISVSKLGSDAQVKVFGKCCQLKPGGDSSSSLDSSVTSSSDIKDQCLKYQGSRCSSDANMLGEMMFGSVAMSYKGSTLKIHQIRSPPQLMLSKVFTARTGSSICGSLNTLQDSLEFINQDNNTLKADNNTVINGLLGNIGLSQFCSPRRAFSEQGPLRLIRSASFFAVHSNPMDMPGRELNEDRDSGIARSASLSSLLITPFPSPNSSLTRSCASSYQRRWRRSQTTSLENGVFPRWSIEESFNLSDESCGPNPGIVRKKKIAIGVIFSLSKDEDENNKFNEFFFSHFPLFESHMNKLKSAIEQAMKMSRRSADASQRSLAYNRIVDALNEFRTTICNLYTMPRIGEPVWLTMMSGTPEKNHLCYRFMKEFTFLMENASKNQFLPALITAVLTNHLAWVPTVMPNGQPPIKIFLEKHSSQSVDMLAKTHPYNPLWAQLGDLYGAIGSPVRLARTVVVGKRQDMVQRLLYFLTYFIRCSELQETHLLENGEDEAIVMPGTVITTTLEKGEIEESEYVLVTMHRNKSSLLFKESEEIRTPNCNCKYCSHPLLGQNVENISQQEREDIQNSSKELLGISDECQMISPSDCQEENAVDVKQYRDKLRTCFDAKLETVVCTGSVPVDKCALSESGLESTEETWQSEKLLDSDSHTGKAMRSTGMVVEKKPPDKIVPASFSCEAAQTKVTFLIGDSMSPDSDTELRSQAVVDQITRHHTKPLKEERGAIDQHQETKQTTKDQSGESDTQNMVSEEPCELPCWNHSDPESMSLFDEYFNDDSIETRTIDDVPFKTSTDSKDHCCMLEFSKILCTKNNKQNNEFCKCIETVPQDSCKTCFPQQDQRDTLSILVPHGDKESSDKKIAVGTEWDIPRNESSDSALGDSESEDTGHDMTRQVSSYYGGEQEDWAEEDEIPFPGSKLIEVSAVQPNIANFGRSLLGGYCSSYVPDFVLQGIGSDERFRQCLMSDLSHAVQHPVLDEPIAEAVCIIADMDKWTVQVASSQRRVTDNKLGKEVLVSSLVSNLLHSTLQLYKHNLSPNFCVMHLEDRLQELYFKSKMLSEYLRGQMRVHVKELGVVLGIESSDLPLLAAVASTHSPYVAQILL
# ± gives the standard deviation of the averaged measurements. Only a part is listed here, and it is no random draw.
# Compound: Nc1ncnc2c1ncn2[C@@H]1O[C@H](COP(=O)(O)OP(=O)(O)OP(=O)(O)O)[C@@H](O)[C@H]1O [adenosine triphosphate]
# Experiment: NP40-soluble protein abundance relative to vehicle (solubility fold change) (ratio); higher = more soluble protein in presence of ATP
# How it was run: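 Jurkat crude lysate (Dounce-homogenised) was treated with eight concentrations from 0.1 to 10 mM for 10 min at room temperature, then 3 min at 37 °C. It was solubilised with 0.8% NP40 and benzonase (60 min, 4 °C) and ultracentrifuged, and the supernatant was TMT-labelled for LC-MS/MS. Intensities were vsn-normalised, and the value is the fold change against the NP40-processed vehicle per replicate, from three independent experiments.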
Target,NP40-soluble protein abundance (concentration: 1mM),NP40-soluble protein abundance (concentration: 2mM),NP40-soluble protein abundance (concentration: 4mM),NP40-soluble protein abundance (concentration: 6mM),NP40-soluble protein abundance (concentration: 8mM),NP40-soluble protein abundance (concentration: 10mM)
J3KP92 and related entries (UniProt Q86Z02),0.924 ± 0.14,0.979 ± 0.06,0.975 ± 0.13,0.933 ± 0.093,1.04 ± 0.12,1.04 ± 0.068
K7EKM7 (UniProt O75264),0.917 ± 0.25,0.895 ± 0.14,0.938 ± 0.32,0.94 ± 0.28,0.797 ± 0.25,0.836 ± 0.26
H3BPB8 and related entries (UniProt P34949),1.02 ± 0.026,1.07 ± 0.091,1.01 ± 0.032,1.03 ± 0.053,0.992 ± 0.017,0.997 ± 0.03
I3L4B6 and related entries (UniProt Q67FW5),0.943 ± 0.033,1.05 ± 0.075,0.963 ± 0.1,0.931 ± 0.0082,1.04 ± 0.084,1.02 ± 0.013
H0YAH3 and related entries (UniProt Q86SF2),1.05 ± 0.052,1.02 ± 0.052,1.03 ± 0.075,0.976 ± 0.092,1.05 ± 0.024,0.99 ± 0.065
K7ERF1 and related entries (UniProt Q9UBQ5),1.01 ± 0.043,1.03 ± 0.038,1.06 ± 0.039,1.21 ± 0.074,1.27 ± 0.08,1.34 ± 0.13
K7EKW4 and related entries (UniProt Q96AB3),0.963 ± 0.075,0.957 ± 0.1,0.94 ± 0.092,0.871 ± 0.13,0.925 ± 0.061,0.939 ± 0.059
H0YLN8 and related entries (UniProt Q96QT4),1.12 ± 0.18,1.02 ± 0.039,1.17 ± 0.12,1.01 ± 0.068,0.99025 ± 0.00084,1.008 ± 0.0067
J3KMZ7 and related entries (UniProt Q9H0H0),1.1 ± 0.082,1.04 ± 0.13,1.09 ± 0.12,1.09 ± 0.2,1.11 ± 0.18,1.18 ± 0.18
H0YJF3 and related entries (UniProt Q13686),0.942 ± 0.027,1.01 ± 0.13,1.04 ± 0.06,0.899 ± 0.12,0.907 ± 0.14,1.05 ± 0.18
UniProt I3L0E3,1.03 ± 0.033,0.949 ± 0.062,0.948 ± 0.076,0.884 ± 0.13,0.9 ± 0.12,0.864 ± 0.05
J3QSH4 and related entries (UniProt Q14119),0.992 ± 0.053,0.98 ± 0.034,0.918 ± 0.038,0.96 ± 0.083,0.894 ± 0.049,0.896 ± 0.024
J3KR72 and related entries (UniProt P49848),1.09 ± 0.072,1.07 ± 0.051,1.07 ± 0.043,1.18 ± 0.15,1.11 ± 0.083,1.11 ± 0.037
K7EMK7 and related entries (UniProt Q04725),0.965 ± 0.12,1.07 ± 0.076,1.11 ± 0.094,1.03 ± 0.23,1.04 ± 0.11,1.04 ± 0.067
H7C3T2 and related entries (UniProt Q2TAZ0),0.9778 ± 0.0038,0.943 ± 0.058,0.969 ± 0.027,0.976 ± 0.039,0.949 ± 0.051,0.917 ± 0.022
H7BYJ3 and related entries (UniProt O14578),0.996 ± 0.032,0.997 ± 0.026,0.991 ± 0.019,1.03 ± 0.016,0.998 ± 0.016,0.996 ± 0.018
H7C5A7 and related entries (UniProt O14734),0.971 ± 0.038,0.972 ± 0.055,1.01 ± 0.076,0.923 ± 0.056,0.941 ± 0.041,0.982 ± 0.071
J3QKV7 and related entries (UniProt P55039),1.05 ± 0.096,1.02 ± 0.096,1.04 ± 0.076,0.984 ± 0.13,1.05 ± 0.11,1 ± 0.04
K7EK00 and related entries (UniProt Q96ND0),0.901 ± 0.042,0.923 ± 0.026,0.873 ± 0.034,0.917 ± 0.032,0.855 ± 0.024,0.907 ± 0.036
H0YDM4 and related entries (UniProt Q86VS8),0.931 ± 0.066,0.926 ± 0.028,0.914 ± 0.041,0.96 ± 0.076,0.944 ± 0.037,0.884 ± 0.041
K7EL68 and related entries (UniProt Q16543),0.959 ± 0.059,0.941 ± 0.02,0.911 ± 0.033,0.97 ± 0.045,0.925 ± 0.034,0.9204 ± 0.0065
I3L182 and related entries (UniProt Q9UQ35),1.34 ± 0.072,1.39 ± 0.075,1.48 ± 0.1,1.56 ± 0.12,1.49 ± 0.069,1.45 ± 0.032
H0YGR4 and related entries (UniProt Q9Y3B8),0.982 ± 0.042,0.957 ± 0.063,0.935 ± 0.053,0.94 ± 0.036,0.918 ± 0.1,0.898 ± 0.087
H7C3X7 and related entries (UniProt Q2T9K0),1.04 ± 0.13,0.999 ± 0.13,1.12 ± 0.069,0.984 ± 0.19,0.914 ± 0.097,0.985 ± 0.3
J3QRD1 and related entries (UniProt P51648),1.03 ± 0.17,1.01 ± 0.11,1 ± 0.082,0.904 ± 0.12,1.02 ± 0.018,1 ± 0.063
H0YIE9 and related entries (UniProt O94952),1.04 ± 0.11,1.04 ± 0.083,1.03 ± 0.13,1.01 ± 0.12,1.04 ± 0.086,1.05 ± 0.08
H0Y9Z5 and related entries (UniProt Q96LI5),1.2194 ± 0.00086,1.2 ± 0.023,1.27 ± 0.15,1.14 ± 0.14,1.3 ± 0.066,1.3 ± 0.13
H3BPU4 and related entries (UniProt Q9UGJ1),1.12 ± 0.092,1.12 ± 0.072,1.1 ± 0.073,1.08 ± 0.1,1.13 ± 0.096,1.18 ± 0.13
K7ESN3 and related entries (UniProt Q8N2G8),1.05 ± 0.14,0.969 ± 0.026,1.02 ± 0.077,1.02 ± 0.071,0.992 ± 0.12,0.989 ± 0.064
J3KNG8 and related entries (UniProt Q8TF40),1.02 ± 0.12,1.02 ± 0.057,1.05 ± 0.13,1.02 ± 0.018,0.958 ± 0.078,0.983 ± 0.053

# Fetched one by one from the entries so far (two):
Target,NP40-soluble protein abundance (concentration: 1mM),NP40-soluble protein abundance (concentration: 2mM),NP40-soluble protein abundance (concentration: 4mM),NP40-soluble protein abundance (concentration: 6mM),NP40-soluble protein abundance (concentration: 8mM),NP40-soluble protein abundance (concentration: 10mM)
H0YGR4 and related entries (UniProt Q9Y3B8),0.982 ± 0.042,0.957 ± 0.063,0.935 ± 0.053,0.94 ± 0.036,0.918 ± 0.1,0.898 ± 0.087
K7ESN3 and related entries (UniProt Q8N2G8),1.05 ± 0.14,0.969 ± 0.026,1.02 ± 0.077,1.02 ± 0.071,0.992 ± 0.12,0.989 ± 0.064
